The test concerns the target V5-tagged PHD3 (UniProt Q9H6Z9). The test is described as follows: affinity purification with mass spectrometry; HEK293T transfected with V5-tagged hydroxylase, 2 mM DMOG or DMSO for 4 hr; anti-V5 agarose for 2 hr; label-free quantification.

Protein sequences, listed by entry. Tags and fused reporters are not part of them.
UniProt Q9H6Z9: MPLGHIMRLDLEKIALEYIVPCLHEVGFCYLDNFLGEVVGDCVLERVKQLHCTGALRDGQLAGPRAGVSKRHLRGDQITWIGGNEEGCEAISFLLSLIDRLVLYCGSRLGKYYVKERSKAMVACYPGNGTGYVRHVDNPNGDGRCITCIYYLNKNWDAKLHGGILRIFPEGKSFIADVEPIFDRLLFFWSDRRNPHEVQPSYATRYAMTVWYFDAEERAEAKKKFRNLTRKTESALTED

Results are given in words; binding and its absence hold for the method and conditions named. Binding seen in cells or lysates may run through a third protein. A yes stands for co-enrichment or nearness to the bait. Other partners may have been found.

The source of these data is article PMC6088137.

On to “endogenous p53 (HEK293T) (from UniProt P04637 1-393)”, for which the binding entry was “binds”.
